Experimental data reported in patent publication US12419871B2, “Biomolecules involved in Alzheimer's disease” (ELECTROPHORETICS LIMITED, priority 2015, dated 2025).

test: TMTcalibrator quantification of regulated proteins in AD CSF versus control; design: species or system human; conditions: CSF of AD patient versus control; non-modified peptides of each protein summed for three control and three AD cases

| Molecule | Log2 AD/Control |
| --- | --- |
| Q05639 (protein, UniProt Q05639 1-463, looked up, full-length) MGKEKTHINIVVIGHVDSGKSTTTGHLIYKCGGIDKRTIEKFEKEAAEMGKGSFKYAWVLDKLKAERERGITIDISLWKFETTKYYITIIDAPGHRDFIKNMITGTSQADCAVLIVAAGVGEFEAGISKNGQTREHALLAYTLGVKQLIVGVNKMDSTEPAYSEKRYDEIVKEVSAYIKKIGYNPATVPFVPISGWHGDNMLEPSPNMPWFKGWKVERKEGNASGVSLLEALDTILPPTRPTDKPLRLPLQDVYKIGGIGTVPVGRVETGILRPGMVVTFAPVNITTEVKSVEMHHEALSEALPGDNVGFNVKNVSVKDIRRGNVCGDSKSDPPQEAAQFTSQVIILNHPGQISAGYSPVIDCHTAHIACKFAELKEKIDRRSGKKLEDNPKSLKSGDAAIVEMVPGKPMCVESFSQYPPLGRFAVRDMRQTVAVGVIKNVEKKSGGAGKVTKSAQKAQKAGK | 0.68 |
| Q9NZ08 (protein, UniProt Q9NZ08 1-941, looked up, full-length) MVFLPLKWSLATMSFLLSSLLALLTVSTPSWCQSTEASPKRSDGTPFPWNKIRLPEYVIPVHYDLLIHANLTTLTFWGTTKVEITASQPTSTIILHSHHLQISRATLRKGAGERLSEEPLQVLEHPRQEQIALLAPEPLLVGLPYTVVIHYAGNLSETFHGFYKSTYRTKEGELRILASTQFEPTAARMAFPCFDEPAFKASFSIKIRREPRHLAISNMPLVKSVTVAEGLIEDHFDVTVKMSTYLVAFIISDFESVSKITKSGVKVSVYAVPDKINQADYALDAAVTLLEFYEDYFSIPYPLPKQDLAAIPDFQSGAMENWGLTTYRESALLFDAEKSSASSKLGITMTVAHELAHQWFGNLVTMEWWNDLWLNEGFAKFMEFVSVSVTHPELKVGDYFFGKCFDAMEVDALNSSHPVSTPVENPAQIREMFDDVSYDKGACILNMLREYLSADAFKSGIVQYLQKHSYKNTKNEDLWDSMASICPTDGVKGMDGFCSRSQHSSSSSHWHQEGVDVKTMMNTWTLQKGFPLITITVRGRNVHMKQEHYMKGSDGAPDTGYLWHVPLTFITSKSDMVHRFLLKTKTDVLILPEEVEWIKFNVGMNGYYIVHYEDDGWDSLTGLLKGTHTAVSSNDRASLINNAFQLVSIGKLSIEKALDLSLYLKHETEIMPVFQGLNELIPMYKLMEKRDMNEVETQFKAFLIRLLRDLIDKQTWTDEGSVSERMLRSQLLLLACVHNYQPCVQRAEGYFRKWKESNGNLSLPVDVTLAVFAVGAQSTEGWDFLYSKYQFSLSSTEKSQIEFALCRTQNKEKLQWLLDESFKGDKIKTQEFPQILTLIGRNPVGYPLAWQFLRKNWNKLVQKFELGSSSIAHMVMGTTNQFSTRTRLEEVKGFFSSLKENGSQLRCVQQTIETIEENIGWMDKNFDKIRVWLQSEKLERM | 1.16 |
| P20827 (protein, UniProt P20827 1-205, looked up, full-length) MEFLWAPLLGLCCSLAAADRHTVFWNSSNPKFRNEDYTIHVQLNDYVDIICPHYEDHSVADAAMEQYILYLVEHEEYQLCQPQSKDQVRWQCNRPSAKHGPEKLSEKFQRFTPFTLGKEFKEGHSYYYISKPIHQHEDRCLRLKVTVSGKITHSPQAHDNPQEKRLAADDPEVRVLHSIGHSAAPRLFPLAWTVLLLPLLLLQTP | 0.86 |
| Q92506 (protein, UniProt Q92506 1-261, looked up, full-length) MASQLQNRLRSALALVTGAGSGIGRAVSVRLAGEGATVAACDLDRAAAQETVRLLGGPGSKEGPPRGNHAAFQADVSEARAARCLLEQVQACFSRPPSVVVSCAGITQDEFLLHMSEDDWDKVIAVNLKGTFLVTQAAAQALVSNGCRGSIINISSIVGKVGNVGQTNYAASKAGVIGLTQTAARELGRHGIRCNSVLPGFIATPMTQKVPQKVVDKITEMIPMGHLGDPEDVADVVAFLASEDSGYITGTSVEVTGGLFM | 0.87 |
| Q92731 (protein, UniProt Q92731 1-530, looked up, full-length) MDIKNSPSSLNSPSSYNCSQSILPLEHGSIYIPSSYVDSHHEYPAMTFYSPAVMNYSIPSNVTNLEGGPGRQTTSPNVLWPTPGHLSPLVVHRQLSHLYAEPQKSPWCEARSLEHTLPVNRETLKRKVSGNRCASPVTGPGSKRDAHFCAVCSDYASGYHYGVWSCEGCKAFFKRSIQGHNDYICPATNQCTIDKNRRKSCQACRLRKCYEVGMVKCGSRRERCGYRLVRRQRSADEQLHCAGKAKRSGGHAPRVRELLLDALSPEQLVLTLLEAEPPHVLISRPSAPFTEASMMMSLTKLADKELVHMISWAKKIPGFVELSLFDQVRLLESCWMEVLMMGLMWRSIDHPGKLIFAPDLVLDRDEGKCVEGILEIFDMLLATTSRFRELKLQHKEYLCVKAMILLNSSMYPLVTATQDADSSRKLAHLLNAVTDALVWVIAKSGISSQQQSMRLANLLMLLSHVRHASNKGMEHLLNMKCKNVVPVYDLLLEMLNAHVLRGCKSSITGSECSPAEDSKSKEGSQNPQSQ | 1.73 |
| O43909 (protein, UniProt O43909 1-919, looked up, full-length) MTGYTMLRNGGAGNGGQTCMLRWSNRIRLTWLSFTLFVILVFFPLIAHYYLTTLDEADEAGKRIFGPRVGNELCEVKHVLDLCRIRESVSEELLQLEAKRQELNSEIAKLNLKIEACKKSIENAKQDLLQLKNVISQTEHSYKELMAQNQPKLSLPIRLLPEKDDAGLPPPKATRGCRLHNCFDYSRCPLTSGFPVYVYDSDQFVFGSYLDPLVKQAFQATARANVYVTENADIACLYVILVGEMQEPVVLRPAELEKQLYSLPHWRTDGHNHVIINLSRKSDTQNLLYNVSTGRAMVAQSTFYTVQYRPGFDLVVSPLVHAMSEPNFMEIPPQVPVKRKYLFTFQGEKIESLRSSLQEARSFEEEMEGDPPADYDDRIIATLKAVQDSKLDQVLVEFTCKNQPKPSLPTEWALCGEREDRLELLKLSTFALIITPGDPRLVISSGCATRLFEALEVGAVPVVLGEQVQLPYQDMLQWNEAALVVPKPRVTEVHFLLRSLSDSDLLAMRRQGRFLWETYFSTADSIFNTVLAMIRTRIQIPAAPIREEAAAEIPHRSGKAAGTDPNMADNGDLDLGPVETEPPYASPRYLRNFTLTVTDFYRSWNCAPGPFHLFPHTPFDPVLPSEAKFLGSGTGFRPIGGGAGGSGKEFQAALGGNVPREQFTVVMLTYEREEVLMNSLERLNGLPYLNKVVVVWNSPKLPSEDLLWPDIGVPIMVVRTEKNSLNNRFLPWNEIETEAILSIDDDAHLRHDEIMFGFRVWREARDRIVGFPGRYHAWDIPHQSWLYNSNYSCELSMVLTGAAFFHKYYAYLYSYVMPQAIRDMVDEYINCEDIAMNFLVSHITRKPPIKVTSRWTFRCPGCPQALSHDDSHFHERHKCINFFVKVYGYMPLLYTQFRVDSVLFKTRLPHDKTKCFKFI | 1.03 |
| Q6MZW2 (protein, UniProt Q6MZW2 1-842, looked up, full-length) MKPGGFWLHLTLLGASLPAALGWMDPGTSRGPDVGVGESQAEEPRSFEVTRREGLSSHNELLASCGKKFCSRGSRCVLSRKTGEPECQCLEACRPSYVPVCGSDGRFYENHCKLHRAACLLGKRITVIHSKDCFLKGDTCTMAGYARLKNVLLALQTRLQPLQEGDSRQDPASQKRLLVESLFRDLDADGNGHLSSSELAQHVLKKQDLDEDLLGCSPGDLLRFDDYNSDSSLTLREFYMAFQVVQLSLAPEDRVSVTTVTVGLSTVLTCAVHGDLRPPIIWKRNGLTLNFLDLEDINDFGEDDSLYITKVTTIHMGNYTCHASGHEQLFQTHVLQVNVPPVIRVYPESQAQEPGVAASLRCHAEGIPMPRITWLKNGVDVSTQMSKQLSLLANGSELHISSVRYEDTGAYTCIAKNEVGVDEDISSLFIEDSARKTLANILWREEGLSVGNMFYVFSDDGIIVIHPVDCEIQRHLKPTEKIFMSYEEICPQREKNATQPCQWVSAVNVRNRYIYVAQPALSRVLVVDIQAQKVLQSIGVDPLPAKLSYDKSHDQVWVLSWGDVHKSRPSLQVITEASTGQSQHLIRTPFAGVDDFFIPPTNLIINHIRFGFIFNKSDPAVHKVDLETMMPLKTIGLHHHGCVPQAMAHTHLGGYFFIQCRQDSPASAARQLLVDSVTDSVLGPNGDVTGTPHTSPDGRFIVSAAADSPWLHVQEITVRGEIQTLYDLQINSGISDLAFQRSFTESNQYNIYAALHTEPDLLFLELSTGKVGMLKNLKEPPAGPAQPWGGTHRIMRDSGLFGQYLLTPARESLFLINGRQNTLRCEVSGIKGGTTVVWVGEV | 1.38 |
